Results from patent US20200179236A1, “METHOD AND PRODUCT FOR CARIES TREATMENT” (Credentis AG, priority 2016, published 2020).

Experiment: Penetration of fluorescent P11-4 (200 ppm P11-4 spiked with 10 ppm ATT0647-P11-4) into artificial lesions, confocal microscopy
Design: species or system human; key: 1 = no or low presence; 4 = high presence of fluorescent P11-4
Details: for presence of fluorescent P11-4, 1 mm: incubation 1 mm; for presence of fluorescent P11-4, 6 d: washing in H2O; for presence of fluorescent P11-4, 2 mm: incubation 2 mm; for presence of fluorescent P11-4, 5 mm: incubation 5 mm; for presence of fluorescent P11-4, 4 d: washing in Remin. buffer
Description: Creation of artificial lesions on extracted human molar teeth was performed as described by Lo et al. 2010 (J Dent. 38(4):352-359). To define the position of the demineralized subsurface area (i.e., artificial carious lesion or white spot), the tooth was covered with colorless nail varnish, leaving a window of approximately 4×4 mm. The tooth was placed in demineralization buffer (2.2 mM CaCl2, 2.2 mM NaH2PO4, 50 mM acetic acid; pH adjusted with 1 M KOH to 4.4) for 3 d at 37° C. To ensure that all pores are open, as in a typical active caries lesion, the resulting subsurface lesions were treated with 10 μL of 2% NaCIO (incubation for 1 min), rinsed, and air-dried at room temperature.
b) Treatment • A 200 ppm (i.e., 200 μg/ml) solution of P11-4 (SEQ ID NO: 2), spiked with 10 ppm ATT0647-P11-4 (fluorescence labelled P11-4 (SEQ ID NO: 6): Ac-QQRFEWEFEQQSGSGC-(ATT0647)-NH2) , i.e., 1:20, in 25 mM TRIS buffer was prepared at different pH, in particular, at 8.4 or 8.5 or 6.3, 6.5 or 6.8). • As specified in the table below, tooth were optionally pretreated, e.g., by incubation in human saliva for one day (about 24 hours), optionally followed by 5 min sonication (258 hz with a sonic toothbrush, Sonicare Diamond Clean ® (Philips)) or by immersion in 2% NaClO for 1 min. • Tooth were immersed in the P11-4 solution for a defined period of time, 1, 2 or 5 min, and then removed and washed in water for 10 min or in remineralization buffer (2 mM Ca(NO3), 1.2 mM KHPO4, and 60 mM Tris/HC1, pH adjusted to 7.4 with 1 M KOH) for 4 days and/or 6 days. • Confocal assessment after 1, 2 or 5 min incubation was carried out while the teeth were in P11-4 solution, and optionally, after washing in water or in remineralization buffer after 10 min or 4 or 6 days.
Samples were placed in a μ-slide I (ibidi, Martinsried) in dest. water and analyzed by a confocal laser microscope (Olympus IX81). The recorded stack of four 2-dimensional images each projected the lesion volume of 51.4 gm thickness, giving a total assessment depth of 205 gm (objective: UPLSAPO 20x/NA 0.75; helium-neon gas laser; excitation: 633 nm and emission: 668 nm). Images were analyzed by Olympus software (FluoView FV1000).

[1] = tooth 2, pH 8.4, no pretreatment
[2] = tooth 10, pH 8.5, no pretreatment
[3] = tooth ZR1, pH 8.5, sonification, no saliva
[4] = tooth ZR2, pH 8.5, saliva, then NaClO

Ac-QQRFEWEFEQQSGSGC-(ATT0647)-NH2 (N-acetyl, ATTO647 label, C-amide; MOD_RES 1 …ON; fluorescence labelled P11-4; MOD_RES 16 AMIDATION; MOD_RES 16 ATTO647) [fluorescent P11-4]
presence of fluorescent P11-4, 1 mm (tooth 1, pH 8.4, no pretreatment): 4 | presence of fluorescent P11-4, 1 mm [1]: 1 | presence of fluorescent P11-4, 6 d [1]: 1 | presence of fluorescent P11-4, 1 mm (tooth 3, pH 6.3, saliva): 1 | presence of fluorescent P11-4, 2 mm (tooth 3, pH 6.3, saliva): 1 | presence of fluorescent P11-4, 5 mm (tooth 3, pH 6.3, saliva): 1 | presence of fluorescent P11-4, 6 d (tooth 3, pH 6.3, saliva): 1 | presence of fluorescent P11-4, 1 mm (tooth 4, pH 6.3, no saliva): 1 | presence of fluorescent P11-4, 2 mm (tooth 4, pH 6.3, no saliva): 1 | presence of fluorescent P11-4, 6 d (tooth 4, pH 6.3, no saliva): 1 | presence of fluorescent P11-4, 2 mm (tooth 5, pH 8.5, saliva): 1 | presence of fluorescent P11-4, 5 mm (tooth 5, pH 8.5, saliva): 1 | presence of fluorescent P11-4, 1 mm [2]: 1 | presence of fluorescent P11-4, 2 mm [2]: 4 | presence of fluorescent P11-4, 5 mm [2]: 4 | presence of fluorescent P11-4, 1 mm (tooth 11, pH 8.5, saliva): 1 | presence of fluorescent P11-4, 2 mm (tooth 11, pH 8.5, saliva): 1 | presence of fluorescent P11-4, 5 mm (tooth 11, pH 8.5, saliva): 1 | presence of fluorescent P11-4, 4 d (tooth 11, pH 8.5, saliva): 1 | presence of fluorescent P11-4, 4 d (tooth 12, pH 6.5, no saliva): 1 | presence of fluorescent P11-4, 1 mm (tooth 13, pH 6.8, saliva): 1 | presence of fluorescent P11-4, 4 d (tooth 13, pH 6.8, saliva): 1 | presence of fluorescent P11-4, 1 mm [3]: 4 | presence of fluorescent P11-4, 2 mm [3]: 4 | presence of fluorescent P11-4, 5 mm [3]: 4 | presence of fluorescent P11-4, 2 mm [4]: 4 | presence of fluorescent P11-4, 5 mm [4]: 4 | presence of fluorescent P11-4, 1 mm (tooth ZR3, pH 8.5, saliva, then sonification): 1 | presence of fluorescent P11-4, 1 mm (tooth ZR4, pH 8.5, saliva): 1 | presence of fluorescent P11-4, 2 mm (tooth ZR4, pH 8.5, saliva): 1
